The results in this text go back to PMC12805896.

Results are given in words; binding and its absence hold for the method and conditions named. In cells and extracts the contact can be indirect. For part of these data: Binding can be weak; no strength is given. Sequences can lack the tags named with a protein.

Test [1] concerns the target T1, C-terminally tagged NF-κB/Relish (UAS-Relish-V5), transgenic flies (Drosophila melanogaster) (UniProt Q94527).
T1 sequence: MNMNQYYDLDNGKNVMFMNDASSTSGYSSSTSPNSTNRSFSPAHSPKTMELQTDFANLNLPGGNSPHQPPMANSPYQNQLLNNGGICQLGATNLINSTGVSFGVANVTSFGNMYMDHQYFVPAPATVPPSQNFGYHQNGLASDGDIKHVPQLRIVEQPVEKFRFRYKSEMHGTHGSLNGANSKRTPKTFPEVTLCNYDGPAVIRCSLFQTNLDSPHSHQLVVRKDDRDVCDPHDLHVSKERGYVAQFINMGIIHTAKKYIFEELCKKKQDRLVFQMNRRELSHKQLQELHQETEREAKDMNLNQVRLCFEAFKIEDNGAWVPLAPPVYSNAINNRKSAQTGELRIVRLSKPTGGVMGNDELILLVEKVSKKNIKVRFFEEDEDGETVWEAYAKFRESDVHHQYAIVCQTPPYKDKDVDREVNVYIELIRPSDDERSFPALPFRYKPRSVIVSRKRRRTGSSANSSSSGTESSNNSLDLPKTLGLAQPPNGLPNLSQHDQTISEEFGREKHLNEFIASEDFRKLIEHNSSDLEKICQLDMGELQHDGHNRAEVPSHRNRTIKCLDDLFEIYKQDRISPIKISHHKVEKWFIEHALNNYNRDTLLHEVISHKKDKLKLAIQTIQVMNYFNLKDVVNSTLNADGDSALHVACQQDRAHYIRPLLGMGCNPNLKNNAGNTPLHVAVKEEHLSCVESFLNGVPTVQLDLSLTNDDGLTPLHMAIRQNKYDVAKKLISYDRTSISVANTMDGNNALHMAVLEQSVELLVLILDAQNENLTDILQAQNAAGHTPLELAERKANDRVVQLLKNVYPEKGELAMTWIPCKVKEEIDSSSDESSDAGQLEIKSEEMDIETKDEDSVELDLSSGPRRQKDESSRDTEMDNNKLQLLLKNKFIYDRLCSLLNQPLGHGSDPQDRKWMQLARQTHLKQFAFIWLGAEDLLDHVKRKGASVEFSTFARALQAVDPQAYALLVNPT
The test can be described thus: co-IP; anti-V5 immunoprecipitation from whole-fly lysates (TubGal4ts > UAS-HDAC6-HA; UAS-Relish-V5); flies fed ad libitum or fasted; washes with IP lysis buffer and IP lysis buffer with 500 mM NaCl; immunoblot.

Test [2] has as its target T2, V5-tagged Relish (pAC5.1-Relish-V5) (Drosophila melanogaster) (UniProt Q94527).
T2 sequence: T1 sequence
The test can be described thus: co-IP; anti-V5 immunoprecipitation (Protein A/G magnetic beads) from cleared lysates of S2R+ cells transiently expressing HDAC6-HA and Relish-V5; cells under serum starvation; washes with IP lysis buffer and IP lysis buffer with 500 mM NaCl; immunoblot. Background: In western blotting, separated proteins are transferred to a membrane and probed.

In test [3] the target is T2, V5-tagged Relish (pAC5.1-Relish-V5) (Drosophila melanogaster). The test can be described thus: condition: only normal culture conditions (no serum starvation); co-IP; anti-V5 immunoprecipitation (Protein A/G magnetic beads) from cleared lysates of S2R+ cells transiently expressing HDAC6-HA and Relish-V5; cells under normal culture conditions; washes with IP lysis buffer and IP lysis buffer with 500 mM NaCl; immunoblot.

In the case of “C-terminally tagged HDAC6 (UAS-HDAC6-HA), transgenic flies (Drosophila melanogaster) (enzyme)”, the binding result in test [1] is listed as “binds”.
With “HA-tagged HDAC6 (pAC5.1-HDAC6-HA) (Drosophila melanogaster) (enzyme)”, the binding result in test [2] is given as “binds”; in test [3] it was “no binding”.
